Measured values reported in PubChem BioAssay AID2685 (National Center for Advancing Translational Sciences (NCATS), 2010).
The other results are listed elsewhere or left out. The main result of the screen is listed elsewhere. These columns were measured beside it and carry no call. Most of these compounds were active or inconclusive in the main read-out, so they are no random draw. Words in brackets tell the shape of the fitted curve; partial curves, single points and poor fits give uncertain potencies.

Experiment: qHTS Assay for Lipid Storage Modulators in Drosophila S3 Cells;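 on cell number change: cells counted by Cell Tracker Red CMTPX staining in the red channel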
Conditions: BODIPY lipid droplet fluorescence, 18-24 h; for cell number change: measured here: cell count max response, cells fed with added oleic acid
How it was run: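 Drosophila S3 cells got compounds at several concentrations plus oleic acid (400 uM solution). Laser-scanning cytometry with 488 nm excitation read lipid droplets at 500-530 nm and cells at 575-640 nm. Percent activity was relative to 20 uM Triacsin C.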

[1] = measured here: lipid fluorescence (Fed channel) AC50, cells fed with added oleic acid
[2] = measured here: cell number channel AC50, cells fed with added oleic acid

Structure (SMILES)	cell number change	AC50 [1]	AC50 [2]
O=C1OCCN1CCN(CN1C(=O)CCC1=O)CN1C(=O)CCC1=O	-11.9%	25.9 µM [falling, partial curve, poor fit]	–
O=C(NCCCNC(=O)c1ccc(-c2cc(Cl)ccc2Cl)o1)c1cnccn1	-55.3%	–	16.4 µM [falling, single point]
O=C(Nc1ccccc1Cl)Oc1ccc(-c2ccccc2)cc1	46.8%	29.1 µM [rising, partial curve, poor fit]	13 µM [rising, partial curve]
Cc1nc(-c2ccc(O)c(O)c2)cs1	4.78%	29.1 µM [rising, single point]	–
COc1ccc(OC)c(S(=O)(=O)Nc2ccc3c(c2)C(=O)OC3)c1	-16.4%	–	–
O=C(COC(=O)C1CC(=O)N(Cc2ccco2)C1)c1ccc(OC(=O)c2ccccc2)cc1 (centres undefined)	-29.2%	29.1 µM [falling, single point]	–
CC(C)N1C(=S)SC2CS(=O)(=O)C=C21 (centres undefined)	-10.7%	2.06 µM [falling, partial curve]	–
CC(=O)NC(c1cc(Cl)c2ccccc2c1O)C(C)C (centres undefined)	7.44%	0.103 µM [rising, full curve, poor fit]	–
COc1cccc(C(=O)OCC(=O)NCCc2ccccc2)c1OC	-1.98%	6.51 µM [rising, single point]	6.51 µM [rising, single point]
Cc1c(Cl)cccc1NC(=O)COC(=O)C12CC3CC(CC(O)(C3)C1)C2	2.63%	0.146 µM [rising, full curve, poor fit]	–
COc1ccc(/C=C(/C(=O)c2cccs2)N2C=CC=CC2=C(C#N)C#N)cc1	-61.8%	5.8 µM [falling, full curve]	6.51 µM [falling, partial curve]
O=C1CCc2cc(S(=O)(=O)Nc3ccccc3Cl)ccc2N1	1.75%	–	–
COc1ccc(Cc2nnc(NC(=O)c3ccco3)s2)cc1OC	-31.1%	–	29.1 µM [falling, single point]
CCN1CCN(c2ncnc3c2nnn3Cc2ccccc2)CC1	56.4%	3.66 µM [rising, full curve, poor fit]	23.1 µM [rising, partial curve]
O=C(COc1ccc(Cl)cc1)OCc1csc(Nc2ccccc2)n1	89.1%	0.058 µM [falling, full curve, poor fit]	29.1 µM [rising, single point]
Cc1c(C(=O)NCc2cccnc2)oc2ccc(S(=O)(=O)N3CCC4(CC3)OCCO4)cc12	18.2%	16.4 µM [rising, partial curve]	–
Cc1ccc(NC(=O)c2ccc(Cl)c(N3C(=O)CCC3=O)c2)cc1	18.8%	14.6 µM [rising, partial curve]	–
Cc1ccc2c(c1)N(C(=O)CCC(=O)NCc1ccccc1)CC(C)O2 (centres undefined)	-19%	29.1 µM [falling, partial curve]	–

Structure (SMILES)	cell number change	AC50 [1]	AC50 [2]
COc1ccc(-n2nc3c(c2NC(=O)Cc2cccc(C)c2)CS(=O)C3)cc1 (centres undefined)	-9.5%	3.66 µM [falling, single point]	–
COc1ccc(-c2cc3ccccc3oc2=O)cc1NC(=O)c1ccc([N+](=O)[O-])o1	-17.5%	8.2 µM [falling, partial curve]	–
O=C(CCCC(=O)Nc1ccc(Br)cc1)N/N=C/c1ccccc1	29.6%	22.4 µM [rising, partial curve, poor fit]	–
CCC(=O)Nc1nc2ccccc2n1Cc1ccc(C)cc1	0.279%	1.46 µM [rising, partial curve]	0.13 µM [rising, full curve]
COc1cccc(C(=O)Oc2ccc(/C=N/Nc3ccc(C(=O)O)cc3)cc2OC)c1	-8.21%	4.61 µM [rising, single point]	–
Cc1ccc(NC(=O)CSc2n[nH]c(-c3cccnc3)n2)c(Br)c1	21%	29.1 µM [rising, single point]	–
O=C1CC(NCc2ccco2)C(=O)N1CCc1ccccc1 (centres undefined)	-12.1%	1.16 µM [falling, single point]	–
COc1ccc(/C=C(\C#N)C(=O)OCC(=O)Nc2c(C)cccc2C)cc1	-11.9%	0.651 µM [falling, partial curve, poor fit]	–
O=C(O)c1ccccc1C(=O)Nc1ccc(Oc2ccccc2)cc1	26.2%	–	1.84 µM [rising, full curve, poor fit]
COc1ccc(CNC(=O)c2oc3ccc(S(=O)(=O)N4CCOCC4)cc3c2C)cc1	6.76%	29.1 µM [falling, single point]	–
O=C1/C(=C\c2cccnc2)SC(=S)N1C1CCS(=O)(=O)C1 (centres undefined)	-8.91%	3.26 µM [rising, single point]	–
CCOC(=O)N1CCN(c2cc(N3CCOCC3)c(F)cc2[N+](=O)[O-])CC1	68.2%	29.1 µM [rising, partial curve]	29.1 µM [rising, single point]
COc1ccc2cc(CN(CC3CCCO3)S(=O)(=O)c3ccccc3)c(=O)[nH]c2c1 (centres undefined)	65.3%	16.4 µM [rising, partial curve]	11.6 µM [rising, partial curve]
CN=CC1=C(O)CC(C)(C)CC1=O	-39.5%	29.1 µM [falling, single point]	32.6 µM [falling, single point]
CC(OC(=O)/C=C/c1ccco1)C(=O)NC1CCCCC1C (centres undefined)	-12.4%	1.46 µM [falling, full curve]	–
CC(C)COC(=O)/C(C#N)=C/c1cn(Cc2ccccc2)c2ccccc12	-27.6%	18.4 µM [falling, single point]	–
CC1(C)C(=O)OC(c2cccn2-c2ccc([N+](=O)[O-])cc2)C2(CCCCC2)C1=O (centres undefined)	0.663%	0.731 µM [falling, single point]	–
O=C(CSc1ccc(-c2ccccn2)nn1)N1CCCc2ccccc21	14.5%	1.16 µM [rising, single point]	–

Complete entries as entered above.
`CN=CC1=C(O)CC(C)(C)CC1=O` as listed: cell number change: -39.5%; AC50 [1]: 29.1 µM [falling, single point]; AC50 [2]: 32.6 µM [falling, single point]
`COc1ccc2cc(CN(CC3CCCO3)S(=O)(=O)c3ccccc3)c(=O)[nH]c2c1` (centres undefined) as listed: cell number change: 65.3%; AC50 [1]: 16.4 µM [rising, partial curve]; AC50 [2]: 11.6 µM [rising, partial curve]
